The supplement of paper PMC10849652
The list shows a part of the results.

Chains of the proteins cited; added tags and fusions are not shown. Lines headed by an entry give the natural chain unless they say otherwise; changes in a name come on top.
UniProt Q6NXE6: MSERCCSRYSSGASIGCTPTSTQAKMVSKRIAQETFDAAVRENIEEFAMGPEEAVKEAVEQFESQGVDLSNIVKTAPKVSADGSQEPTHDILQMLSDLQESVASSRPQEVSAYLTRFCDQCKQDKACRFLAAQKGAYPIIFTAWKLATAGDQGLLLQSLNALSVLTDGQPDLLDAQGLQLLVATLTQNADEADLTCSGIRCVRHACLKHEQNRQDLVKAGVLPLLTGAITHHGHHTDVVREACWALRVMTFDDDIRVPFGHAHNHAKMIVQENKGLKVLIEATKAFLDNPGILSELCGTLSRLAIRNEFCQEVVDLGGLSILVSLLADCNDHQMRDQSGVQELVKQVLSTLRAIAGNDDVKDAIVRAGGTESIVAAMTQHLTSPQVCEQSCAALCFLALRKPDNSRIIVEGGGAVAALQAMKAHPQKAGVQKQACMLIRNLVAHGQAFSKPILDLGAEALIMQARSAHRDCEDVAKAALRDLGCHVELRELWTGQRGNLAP
UniProt Q8NFD5, whole entry, looked up: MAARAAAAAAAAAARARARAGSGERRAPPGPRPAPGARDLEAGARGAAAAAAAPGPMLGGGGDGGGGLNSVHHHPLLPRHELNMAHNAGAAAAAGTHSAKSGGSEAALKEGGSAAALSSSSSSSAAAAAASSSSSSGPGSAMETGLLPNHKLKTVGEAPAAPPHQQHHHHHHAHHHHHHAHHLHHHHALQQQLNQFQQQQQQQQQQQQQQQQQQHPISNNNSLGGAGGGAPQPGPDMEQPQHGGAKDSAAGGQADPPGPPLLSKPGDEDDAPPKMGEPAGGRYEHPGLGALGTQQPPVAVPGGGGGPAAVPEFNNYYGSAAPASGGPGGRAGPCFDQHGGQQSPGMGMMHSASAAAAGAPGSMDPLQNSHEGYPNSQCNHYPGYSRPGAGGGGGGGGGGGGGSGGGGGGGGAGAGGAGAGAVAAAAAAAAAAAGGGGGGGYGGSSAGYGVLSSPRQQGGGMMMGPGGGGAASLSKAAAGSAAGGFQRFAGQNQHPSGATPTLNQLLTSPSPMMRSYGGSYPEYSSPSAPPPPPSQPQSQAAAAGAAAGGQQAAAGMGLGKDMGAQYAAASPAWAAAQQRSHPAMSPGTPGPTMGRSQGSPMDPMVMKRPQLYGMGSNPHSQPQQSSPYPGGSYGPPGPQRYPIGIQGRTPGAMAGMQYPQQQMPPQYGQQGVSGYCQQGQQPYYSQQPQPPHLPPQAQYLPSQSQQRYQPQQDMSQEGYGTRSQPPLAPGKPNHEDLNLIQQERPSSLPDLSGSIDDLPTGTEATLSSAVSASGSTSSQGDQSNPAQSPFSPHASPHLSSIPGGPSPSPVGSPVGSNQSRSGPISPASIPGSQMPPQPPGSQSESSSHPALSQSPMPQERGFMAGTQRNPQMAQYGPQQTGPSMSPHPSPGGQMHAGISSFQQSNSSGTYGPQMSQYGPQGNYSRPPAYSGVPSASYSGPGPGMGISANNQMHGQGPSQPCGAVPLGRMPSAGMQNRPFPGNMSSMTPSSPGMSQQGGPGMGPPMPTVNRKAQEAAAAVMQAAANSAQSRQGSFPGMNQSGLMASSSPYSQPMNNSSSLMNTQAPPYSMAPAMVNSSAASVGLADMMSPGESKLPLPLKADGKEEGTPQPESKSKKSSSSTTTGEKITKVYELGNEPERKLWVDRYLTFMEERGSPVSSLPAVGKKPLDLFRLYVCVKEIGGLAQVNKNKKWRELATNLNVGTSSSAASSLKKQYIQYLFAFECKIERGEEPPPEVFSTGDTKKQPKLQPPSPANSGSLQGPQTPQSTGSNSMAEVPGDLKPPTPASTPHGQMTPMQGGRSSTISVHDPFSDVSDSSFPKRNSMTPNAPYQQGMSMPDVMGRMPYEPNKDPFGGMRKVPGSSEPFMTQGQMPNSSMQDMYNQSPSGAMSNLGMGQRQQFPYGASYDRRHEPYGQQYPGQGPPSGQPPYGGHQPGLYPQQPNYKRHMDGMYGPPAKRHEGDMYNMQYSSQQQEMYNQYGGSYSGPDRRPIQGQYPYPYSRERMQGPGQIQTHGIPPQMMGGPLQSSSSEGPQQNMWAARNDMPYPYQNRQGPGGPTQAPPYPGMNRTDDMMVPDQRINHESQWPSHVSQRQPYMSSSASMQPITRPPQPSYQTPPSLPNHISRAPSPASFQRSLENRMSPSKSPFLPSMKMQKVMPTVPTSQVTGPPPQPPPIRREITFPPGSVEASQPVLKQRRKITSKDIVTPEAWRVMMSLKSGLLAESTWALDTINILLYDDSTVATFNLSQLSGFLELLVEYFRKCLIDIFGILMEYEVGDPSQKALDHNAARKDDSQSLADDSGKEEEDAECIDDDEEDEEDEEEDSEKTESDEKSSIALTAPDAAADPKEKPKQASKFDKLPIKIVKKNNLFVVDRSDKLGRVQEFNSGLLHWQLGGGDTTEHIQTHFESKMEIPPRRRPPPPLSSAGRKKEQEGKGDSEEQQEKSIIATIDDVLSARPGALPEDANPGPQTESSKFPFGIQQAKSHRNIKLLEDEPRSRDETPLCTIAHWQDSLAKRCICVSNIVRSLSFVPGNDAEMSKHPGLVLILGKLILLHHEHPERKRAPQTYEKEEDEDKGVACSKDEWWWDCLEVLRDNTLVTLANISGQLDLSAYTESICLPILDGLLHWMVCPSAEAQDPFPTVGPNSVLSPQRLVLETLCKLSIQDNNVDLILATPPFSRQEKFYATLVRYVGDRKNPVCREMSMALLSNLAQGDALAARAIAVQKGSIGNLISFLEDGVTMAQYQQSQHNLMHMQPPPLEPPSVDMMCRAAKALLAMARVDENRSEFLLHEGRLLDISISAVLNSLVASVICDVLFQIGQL
UniProt O00192: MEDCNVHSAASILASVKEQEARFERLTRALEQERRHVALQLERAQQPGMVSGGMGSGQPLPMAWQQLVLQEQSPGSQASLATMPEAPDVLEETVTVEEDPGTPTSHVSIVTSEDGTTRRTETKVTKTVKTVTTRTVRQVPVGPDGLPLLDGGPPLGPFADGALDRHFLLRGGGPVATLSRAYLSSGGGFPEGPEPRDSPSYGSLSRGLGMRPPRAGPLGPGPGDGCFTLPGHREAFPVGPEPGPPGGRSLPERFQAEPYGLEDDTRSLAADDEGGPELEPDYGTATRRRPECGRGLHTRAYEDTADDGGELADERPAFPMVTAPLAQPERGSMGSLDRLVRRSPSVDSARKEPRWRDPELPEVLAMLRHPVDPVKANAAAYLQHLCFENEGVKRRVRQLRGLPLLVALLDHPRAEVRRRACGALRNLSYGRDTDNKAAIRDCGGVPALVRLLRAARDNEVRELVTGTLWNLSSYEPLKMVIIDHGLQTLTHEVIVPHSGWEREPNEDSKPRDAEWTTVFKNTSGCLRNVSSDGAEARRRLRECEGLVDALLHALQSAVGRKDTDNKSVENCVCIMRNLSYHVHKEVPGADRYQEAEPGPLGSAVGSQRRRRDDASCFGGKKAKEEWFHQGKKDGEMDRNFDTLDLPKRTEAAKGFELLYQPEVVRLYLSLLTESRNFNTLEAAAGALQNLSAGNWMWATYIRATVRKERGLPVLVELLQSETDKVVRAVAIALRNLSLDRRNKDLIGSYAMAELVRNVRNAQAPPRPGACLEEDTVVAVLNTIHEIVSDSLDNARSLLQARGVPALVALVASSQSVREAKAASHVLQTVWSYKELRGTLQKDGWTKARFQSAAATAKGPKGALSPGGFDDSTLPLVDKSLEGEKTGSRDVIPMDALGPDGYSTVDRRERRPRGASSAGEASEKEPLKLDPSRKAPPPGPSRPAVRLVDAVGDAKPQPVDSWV
UniProt Q92624: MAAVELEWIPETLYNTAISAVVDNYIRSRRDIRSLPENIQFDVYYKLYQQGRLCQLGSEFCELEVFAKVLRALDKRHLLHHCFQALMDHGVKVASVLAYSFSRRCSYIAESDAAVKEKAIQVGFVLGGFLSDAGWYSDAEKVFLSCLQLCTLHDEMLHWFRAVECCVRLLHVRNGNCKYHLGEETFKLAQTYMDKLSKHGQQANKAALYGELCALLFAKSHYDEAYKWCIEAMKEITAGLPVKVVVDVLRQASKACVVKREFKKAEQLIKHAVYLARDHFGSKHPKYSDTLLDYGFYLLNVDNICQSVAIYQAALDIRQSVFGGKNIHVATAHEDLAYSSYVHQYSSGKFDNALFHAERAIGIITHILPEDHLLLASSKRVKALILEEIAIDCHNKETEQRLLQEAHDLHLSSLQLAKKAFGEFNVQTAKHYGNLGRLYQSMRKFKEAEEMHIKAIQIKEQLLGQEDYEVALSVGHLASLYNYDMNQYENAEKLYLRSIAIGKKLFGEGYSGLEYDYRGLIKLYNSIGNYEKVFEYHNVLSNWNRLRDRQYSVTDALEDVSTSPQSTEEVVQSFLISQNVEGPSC
UniProt Q8N8R7: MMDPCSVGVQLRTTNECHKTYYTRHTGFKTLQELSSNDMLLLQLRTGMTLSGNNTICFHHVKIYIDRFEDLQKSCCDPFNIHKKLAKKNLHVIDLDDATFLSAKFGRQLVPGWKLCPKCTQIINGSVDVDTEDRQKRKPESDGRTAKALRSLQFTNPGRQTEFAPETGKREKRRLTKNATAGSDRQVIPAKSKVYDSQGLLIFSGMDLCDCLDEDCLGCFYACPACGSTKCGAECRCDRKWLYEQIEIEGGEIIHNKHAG
UniProt Q02410: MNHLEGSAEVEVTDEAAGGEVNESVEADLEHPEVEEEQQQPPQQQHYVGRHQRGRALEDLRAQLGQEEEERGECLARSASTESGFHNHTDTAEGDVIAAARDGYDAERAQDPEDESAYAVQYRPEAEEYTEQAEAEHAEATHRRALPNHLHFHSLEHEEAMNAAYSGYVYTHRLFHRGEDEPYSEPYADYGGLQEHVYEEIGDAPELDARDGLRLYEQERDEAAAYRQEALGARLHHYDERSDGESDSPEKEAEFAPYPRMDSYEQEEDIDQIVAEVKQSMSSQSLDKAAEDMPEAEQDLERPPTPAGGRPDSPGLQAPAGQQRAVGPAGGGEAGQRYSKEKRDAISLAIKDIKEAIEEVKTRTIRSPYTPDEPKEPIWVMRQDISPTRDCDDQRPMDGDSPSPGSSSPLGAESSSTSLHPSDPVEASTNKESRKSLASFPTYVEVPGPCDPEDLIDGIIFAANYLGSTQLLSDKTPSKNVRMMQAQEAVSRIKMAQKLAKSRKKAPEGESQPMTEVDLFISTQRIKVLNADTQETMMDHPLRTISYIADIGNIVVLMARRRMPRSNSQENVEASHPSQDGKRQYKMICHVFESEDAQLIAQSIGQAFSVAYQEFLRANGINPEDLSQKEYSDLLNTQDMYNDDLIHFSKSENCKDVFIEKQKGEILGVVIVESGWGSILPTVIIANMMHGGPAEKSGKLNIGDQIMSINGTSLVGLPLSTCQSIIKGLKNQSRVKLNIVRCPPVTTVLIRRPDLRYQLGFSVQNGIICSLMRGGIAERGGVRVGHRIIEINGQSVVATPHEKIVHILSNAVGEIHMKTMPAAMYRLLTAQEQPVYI
UniProt P53367: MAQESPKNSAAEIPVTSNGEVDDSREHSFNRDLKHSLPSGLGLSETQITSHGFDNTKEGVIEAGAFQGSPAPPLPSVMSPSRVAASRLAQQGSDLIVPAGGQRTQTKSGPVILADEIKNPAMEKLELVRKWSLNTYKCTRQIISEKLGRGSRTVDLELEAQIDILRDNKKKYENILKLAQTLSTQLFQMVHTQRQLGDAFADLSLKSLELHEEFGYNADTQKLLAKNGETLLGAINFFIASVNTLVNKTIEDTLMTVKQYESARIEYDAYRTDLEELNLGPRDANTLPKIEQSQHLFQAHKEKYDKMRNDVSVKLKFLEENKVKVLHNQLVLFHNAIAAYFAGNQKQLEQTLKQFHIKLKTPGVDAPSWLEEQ
UniProt Q8IUX4: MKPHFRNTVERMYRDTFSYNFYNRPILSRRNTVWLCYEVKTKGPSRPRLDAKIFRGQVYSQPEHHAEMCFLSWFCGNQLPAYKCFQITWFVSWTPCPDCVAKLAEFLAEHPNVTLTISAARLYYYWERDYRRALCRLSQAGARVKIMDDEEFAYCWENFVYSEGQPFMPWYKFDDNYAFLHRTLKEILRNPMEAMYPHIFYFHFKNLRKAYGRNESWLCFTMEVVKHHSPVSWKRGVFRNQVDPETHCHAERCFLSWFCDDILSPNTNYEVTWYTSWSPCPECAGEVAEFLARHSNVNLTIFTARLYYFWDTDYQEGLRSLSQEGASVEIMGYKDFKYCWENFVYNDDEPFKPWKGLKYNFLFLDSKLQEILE
UniProt P84077: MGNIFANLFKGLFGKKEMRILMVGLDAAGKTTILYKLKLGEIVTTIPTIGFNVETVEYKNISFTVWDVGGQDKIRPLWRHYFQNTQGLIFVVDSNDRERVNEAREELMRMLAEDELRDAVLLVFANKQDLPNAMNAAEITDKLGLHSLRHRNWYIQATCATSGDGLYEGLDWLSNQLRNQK

How the values were obtained:
Assay in all cases: log2 fold change, soluble protein after heating vs DMSO (PISA); higher = thermal stabilisation; K562 lysate, 10 uM; active = over 0.2 and 3.5 SD of the protein, either way, in both replicates (recomputed)
alvocidib = compound: CN1CC[C@H](c2c(O)cc(O)c3c(=O)cc(-c4ccccc4Cl)oc23)[C@H](O)C1 [alvocidib]
Summary of the method: (§1)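 Thermal stability, expressed as log-two fold change relative to solvent controls, is given from duplicates. Crude K562 extract in PBS pH 7.4 with 1 mM MgCl2, at 1 mg/mL protein, was treated with 10 μM compound for 30 min and heated in aliquots for 3 min across 48°C-58°C. After pooling, adjustment to 0.5% NP-40 at 4°C and centrifugation at 21,000xg for 90 min, supernatant protein was measured by TMTpro 16plex LC-MS/MS with channel sums equalised.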

Tubastatin A = compound: CN1CCc2c(c3ccccc3n2Cc2ccc(C(=O)NO)cc2)C1 [Tubastatin A]
Summary of the method: as §1

[1] = compound: CNC(=O)C1=CC=CC=C1NC2=NC(=NC=C2Cl)NC3=C(C=C(C=C3)N4CCOCC4)OC
Summary of the method: as §1

defactinib = compound: CNC(=O)c1ccc(Nc2ncc(C(F)(F)F)c(NCc3nccnc3N(C)S(C)(=O)=O)n2)cc1 [defactinib]
Summary of the method: as §1

[2] = compound: CNc1nc(-c2ccc3c(N)n[nH]c3c2)cc(N2C[C@@H](C(=O)NC3CCCCC3)CC[C@H]2C)n1
Summary of the method: as §1

encorafenib = compound: COC(=O)N[C@@H](C)CNc1nccc(-c2cn(C(C)C)nc2-c2cc(Cl)cc(NS(C)(=O)=O)c2F)n1 [encorafenib]
Summary of the method: as §1

[3] = compound: COC(=O)[C@H](CCSC)NC(=O)C1=C(C=C(C=C1)NC[C@H](CS)N)C2=CC=CC=C2
Summary of the method: as §1

alisertib = compound: COc1cc(Nc2ncc3c(n2)-c2ccc(Cl)cc2C(c2c(F)cccc2OC)=NC3)ccc1C(=O)O [alisertib]
Summary of the method: as §1

[4] = compound: COc1cc2nc(-c3cc(F)ccc3O)nc(N[C@@H]3CNC[C@H]3C(C)(C)O)c2cc1OC
Summary of the method: as §1

gefitinib = compound: COc1cc2ncnc(Nc3ccc(F)c(Cl)c3)c2cc1OCCCN1CCOCC1 [gefitinib]
Summary of the method: as §1

lapatinib = compound: CS(=O)(=O)CCNCc1ccc(-c2ccc3ncnc(Nc4ccc(OCc5cccc(F)c5)c(Cl)c4)c3c2)o1 [lapatinib]
Summary of the method: as §1

pictilisib = compound: CS(=O)(=O)N1CCN(Cc2cc3nc(-c4cccc5[nH]ncc45)nc(N4CCOCC4)c3s2)CC1 [pictilisib]
Summary of the method: as §1

crizotinib = compound: C[C@@H](Oc1cc(-c2cnn(C3CCNCC3)c2)cnc1N)c1c(Cl)ccc(F)c1Cl [crizotinib]
Summary of the method: as §1

[5] = compound: C[C@H](C1=CC=C(C=C1)C(=O)NC2=C3C=CNC3=NC=C2)N
Summary of the method: as §1

duvelisib = compound: C[C@H](Nc1ncnc2nc[nH]c12)c1cc2cccc(Cl)c2c(=O)n1-c1ccccc1 [duvelisib]
Summary of the method: as §1

gandotinib = compound: Cc1cc(Nc2cc(CN3CCOCC3)c3nc(C)c(Cc4ccc(Cl)cc4F)n3n2)n[nH]1 [gandotinib]
Summary of the method: as §1

tozasertib = compound: Cc1cc(Nc2cc(N3CCN(C)CC3)nc(Sc3ccc(NC(=O)C4CC4)cc3)n2)n[nH]1 [tozasertib]
Summary of the method: as §1

doramapimod = compound: Cc1ccc(-n2nc(C(C)(C)C)cc2NC(=O)Nc2ccc(OCCN3CCOCC3)c3ccccc23)cc1 [doramapimod]
Summary of the method: as §1

bafetinib = compound: Cc1ccc(NC(=O)c2ccc(CN3CC[C@H](N(C)C)C3)c(C(F)(F)F)c2)cc1Nc1nccc(-c2cncnc2)n1 [bafetinib]
Summary of the method: as §1

[6] = compound: Cc1cccc(CC(=O)N2CCc3c2ccc(-c2cn(C)c4ncnc(N)c24)c3F)n1
Summary of the method: as §1

Measured: log2 fold change

ARAP1 (UniProt Q96P48)
inactive: alvocidib -0.027 | Tubastatin A -0.135 | [1] 0.033 | defactinib 0.075 | [2] 0.017 | encorafenib 0.06 | [3] 0.078 | alisertib 0.015 | [4] 0.003 | gefitinib 0.041 | lapatinib -0.022 | pictilisib -0.046 | crizotinib -0.065 | [5] -0.03 | duvelisib -0.002 | gandotinib 0.014 | tozasertib -0.005 | doramapimod 0.063 | bafetinib -0.016 | [6] 0.034

ARMC6 (UniProt Q6NXE6)
active: [3] 0.234
inactive: alvocidib 0 | Tubastatin A -0.171 | [1] 0 | defactinib -0.003 | [2] -0.103 | encorafenib 0.037 | alisertib 0.005 | [4] -0.014 | gefitinib 0.041 | lapatinib 0 | pictilisib -0.015 | crizotinib -0.022 | [5] 0.012 | duvelisib -0.027 | gandotinib -0.067 | tozasertib 0.024 | doramapimod 0 | bafetinib -0.016 | [6] -0.009

ARID1B isoform 3 (UniProt Q8NFD5)
inactive: alvocidib 0.037 | Tubastatin A -0.041 | [1] -0.026 | defactinib 0.053 | [2] -0.011 | encorafenib 0.001 | [3] 0.001 | alisertib 0.035 | [4] 0.004 | gefitinib -0.008 | lapatinib -0.022 | pictilisib -0.056 | crizotinib -0.006 | [5] -0.011 | duvelisib -0.043 | gandotinib 0.023 | tozasertib 0.033 | doramapimod -0.038 | bafetinib -0.046 | [6] 0.015

Quoted from the listing (2 entries):
ARMC6 (UniProt Q6NXE6)
active: [3] 0.234
inactive: alvocidib 0 | Tubastatin A -0.171 | [1] 0 | defactinib -0.003 | [2] -0.103 | encorafenib 0.037 | alisertib 0.005 | [4] -0.014 | gefitinib 0.041 | lapatinib 0 | pictilisib -0.015 | crizotinib -0.022 | [5] 0.012 | duvelisib -0.027 | gandotinib -0.067 | tozasertib 0.024 | doramapimod 0 | bafetinib -0.016 | [6] -0.009

ARID1B isoform 3 (UniProt Q8NFD5)
inactive: alvocidib 0.037 | Tubastatin A -0.041 | [1] -0.026 | defactinib 0.053 | [2] -0.011 | encorafenib 0.001 | [3] 0.001 | alisertib 0.035 | [4] 0.004 | gefitinib -0.008 | lapatinib -0.022 | pictilisib -0.056 | crizotinib -0.006 | [5] -0.011 | duvelisib -0.043 | gandotinib 0.023 | tozasertib 0.033 | doramapimod -0.038 | bafetinib -0.046 | [6] 0.015

The list continues:

ARFGAP3 (UniProt Q9NP61)
inactive: alvocidib -0.014 | Tubastatin A -0.02 | [1] 0.035 | defactinib -0.005 | [2] 0.059 | encorafenib 0.072 | [3] -0.003 | alisertib 0.019 | [4] 0.01 | gefitinib 0.041 | lapatinib 0.037 | pictilisib 0.037 | crizotinib 0.054 | [5] -0.037 | duvelisib -0.031 | gandotinib 0.104 | tozasertib -0.006 | doramapimod 0.131 | bafetinib -0.028 | [6] -0.011

ARVCF (UniProt O00192)
inactive: alvocidib -0.068 | Tubastatin A -0.084 | [1] 0.025 | defactinib -0.037 | [2] -0.027 | encorafenib -0.017 | [3] 0.021 | alisertib 0 | [4] 0.117 | gefitinib 0.146 | lapatinib -0.304 | crizotinib -0.019 | [5] -0.086 | duvelisib 0.087 | gandotinib 0.151 | tozasertib 0.028 | doramapimod 0.048 | [6] 0.129

APPBP2 (UniProt Q92624)
inactive: alvocidib -0.078 | Tubastatin A 0.05 | [1] 0.031 | pictilisib -0.222 | crizotinib -0.132 | [5] -0.224 | gandotinib -0.086 | doramapimod -0.078 | bafetinib 0.026 | [6] 0.021

ARL14EP (UniProt Q8N8R7)
inactive: alvocidib 0.007 | Tubastatin A -0.092 | [1] 0.077 | defactinib 0.102 | [2] -0.007 | alisertib -0.034 | gefitinib 0.053 | pictilisib -0.031 | crizotinib -0.108 | [5] 0.032 | duvelisib -0.014 | gandotinib -0.001 | doramapimod 0.023 | bafetinib -0.116 | [6] -0.064

APBA1 (UniProt Q02410)
inactive: alvocidib 0.034 | Tubastatin A -0.218 | [1] -0.03 | encorafenib -0.067 | [3] -0.019 | alisertib 0.072 | [4] 0.063 | gefitinib 0.077 | lapatinib 0.053 | pictilisib 0.049 | crizotinib -0.046 | [5] -0.128 | gandotinib -0.01 | tozasertib 0.022 | doramapimod 0.053 | bafetinib 0.009 | [6] -0.016

APOBEC3B (UniProt Q9UH17)
inactive: alvocidib 0.022 | Tubastatin A 0.098 | [1] -0.131 | defactinib 0.092 | [2] 0.028 | encorafenib -0.004 | [3] -0.193 | alisertib 0.052 | gefitinib -0.088 | crizotinib 0.005 | [5] -0.085 | duvelisib -0.036 | gandotinib -0.081 | tozasertib -0.13 | doramapimod -0.097 | [6] 0.052

ARFIP1 isoform 2 (UniProt P53367)
inactive: alvocidib 0.129 | Tubastatin A 0.084 | defactinib 0.149 | [2] -0.089 | encorafenib -0.11 | [3] 0.049 | alisertib 0.045 | [4] -0.007 | gefitinib 0.443 | lapatinib -0.059 | pictilisib -0.012 | [5] -0.147 | duvelisib 0.053 | gandotinib 0.014 | tozasertib -0.015 | bafetinib 0.016 | [6] 0.029

APOBEC3F (UniProt Q8IUX4)
inactive: alvocidib -0.004 | [1] -0.114 | defactinib -0.053 | encorafenib 0.102 | [3] 0 | alisertib -0.025 | [4] 0.066 | gefitinib 0.014 | lapatinib -0.195 | pictilisib -0.127 | crizotinib 0.243 | [5] -0.13 | gandotinib 0.103 | tozasertib -0.037 | doramapimod 0.021 | bafetinib -0.022 | [6] -0.181

ARF1 (UniProt P84077)
inactive: alvocidib 0.074 | Tubastatin A -0.028 | [1] 0.009 | [4] 0.005 | lapatinib -0.062 | crizotinib 0 | [5] -0.169 | gandotinib 0.301 | doramapimod 0.011 | [6] -0.284
